These are yes or no findings as the source states them, for the method shown. In cells and extracts the contact can be indirect. Binding calls can cover weak binding; strength is not graded here.
Target: Dvl2, exogenously expressed in HEK293 cells (wild type)
Test: co-IP; exogenous proteins expressed in HEK293 cells; for Dvl2-DPR1 with and without overexpressed Cftr

B1: Dapper1 (DPR1) in HEK293 cells (protein, UniProt Q9NYF0 1-836)
chain: MKPSPAGTAKELEPPAPARGEQRTAEPEGRWREKGEADTERQRTRERQEATLAGLAELEYLRQRQELLVRGALRGAGGAGAAAPRAGELLGEAAQRSRLEEKFLEENILLLRKQLNCLRRRDAGLLNQLQELDKQISDLRLDVEKTSEEHLETDSRPSSGFYELSDGASGSLSNSSNSVFSECLSSCHSSTCFCSPLEATLSLSDGCPKSADLIGLLEYKEGHCEDQASGAVCRSLSTPQFNSLDVIADVNPKYQCDLVSKNGNDVYRYPSPLHAVAVQSPMFLLCLTGNPLREEDRLGNHASDICGGSELDAVKTDSSLPSPSSLWSASHPSSSKKMDGYILSLVQKKTHPVRTNKPRTSVNADPTKGLLRNGSVCVRAPGGVSQGNSVNLKNSKQACLPSGGIPSLNNGTFSPPKQWSKESKAEQAESKRVPLPEGCPSGAASDLQSKHLPKTAKPASQEHARCSAIGTGESPKESAQLSGASPKESPSRGPAPPQENKVVQPLKKMSQKNSLQGVPPATPPLLSTAFPVEERPALDFKSEGSSQSLEEAHLVKAQFIPGQQPSVRLHRGHRNMGVVKNSSLKHRGPALQGLENGLPTVREKTRAGSKKCRFPDDLDTNKKLKKASSKGRKSGGGPEAGVPGRPAGGGHRAGSRAHGHGREAVVAKPKHKRTDYRRWKSSAEISYEEALRRARRGRRENVGLYPAPVPLPYASPYAYVASDSEYSAECESLFHSTVVDTSEDEQSNYTTNCFGDSESSVSEGEFVGESTTTSDSEESGGLIWSQFVQTLPIQTVTAPDLHNHPAKTFVKIKASHNLKKKILRFRSGSLKLMTTV
In the case of B1, the binding is reported as “binds”.

From article PMC5833403
